Results taken from publication doi:10.1101/2025.01.26.634929.
Results are given in words; binding and its absence hold for the method and conditions named. Binding seen in cells or lysates may run through a third protein. Here binding means that the protein was enriched with, or labelled near, the bait; the list need not be complete. No binding means not detected with the bait. For some assays here: Where a sequence is shown, tags or fusion partners need not be part of it. Each block holds one binder with its values, some of them ahead of it.

By UniProt entry, the sequences of proteins in these tests, tags left out.
UniProt Q9UKV8, whole entry: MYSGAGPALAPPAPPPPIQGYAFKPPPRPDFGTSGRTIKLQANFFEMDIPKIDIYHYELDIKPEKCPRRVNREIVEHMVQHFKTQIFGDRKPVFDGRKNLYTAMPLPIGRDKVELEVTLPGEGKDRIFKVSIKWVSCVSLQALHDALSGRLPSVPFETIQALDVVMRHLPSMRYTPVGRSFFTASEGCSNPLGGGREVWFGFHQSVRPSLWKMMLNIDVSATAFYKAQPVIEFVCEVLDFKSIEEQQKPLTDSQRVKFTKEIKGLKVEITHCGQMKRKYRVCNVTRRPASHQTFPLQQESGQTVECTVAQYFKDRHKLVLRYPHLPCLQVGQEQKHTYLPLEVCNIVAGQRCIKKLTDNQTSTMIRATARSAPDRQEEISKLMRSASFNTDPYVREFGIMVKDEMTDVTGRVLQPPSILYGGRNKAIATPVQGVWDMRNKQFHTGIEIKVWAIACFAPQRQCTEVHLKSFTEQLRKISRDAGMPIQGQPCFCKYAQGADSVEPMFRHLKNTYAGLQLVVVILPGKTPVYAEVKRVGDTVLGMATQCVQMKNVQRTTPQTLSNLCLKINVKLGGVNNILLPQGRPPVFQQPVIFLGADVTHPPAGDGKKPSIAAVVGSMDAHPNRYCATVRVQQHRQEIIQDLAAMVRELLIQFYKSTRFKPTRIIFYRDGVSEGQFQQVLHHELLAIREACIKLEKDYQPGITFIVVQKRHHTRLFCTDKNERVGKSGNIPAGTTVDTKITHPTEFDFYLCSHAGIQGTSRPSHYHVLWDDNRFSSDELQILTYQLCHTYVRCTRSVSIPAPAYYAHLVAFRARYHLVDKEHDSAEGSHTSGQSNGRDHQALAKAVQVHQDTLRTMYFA

Assays:
[1] = target: AGO2 fused with C-terminal Flag- and HA-epitope tags (e-AGO2), Q9UKV8; assay: affinity purification with mass spectrometry; details: remark: other sources report otherwise
[2] = target: AGO2 fused with C-terminal Flag- and HA-epitope tags (e-AGO2) (UniProt Q9UKV8); assay: affinity purification with mass spectrometry

binding [1]: no binding
B1: FUS, P35637 1-526 (protein)
chain: MASNDYTQQATQSYGAYPTQPGQGYSQQSSQPYGQQSYSGYSQSTDTSGYGQSSYSSYGQSQNTGYGTQSTPQGYGSTGGYGSSQSSQSSYGQQSSYPGYGQQPAPSSTSGSYGSSSQSSSYGQPQSGSYSQQPSYGGQQQSYGQQQSYNPPQGYGQQNQYNSSSGGGGGGGGGGNYGQDQSSMSSGGGSGGGYGNQDQSGGGGSGGYGQQDRGGRGRGGSGGGGGGGGGGYNRSSGGYEPRGRGGGRGGRGGMGGSDRGGFNKFGGPRDQGSRHDSEQDNSDNNTIFVQGLGENVTIESVADYFKQIGIIKTNKKTGQPMINLYTDRETGKLKGEATVSFDDPPSAKAAIDWFDGKEFSGNPIKVSFATRRADFNRGGGNGRGGRGRGGPMGRGGYGGGGSGGGGRGGFPSGGGGGGGQQRAGDWKCPNPTCENMNFSWRNECNQCKAPKPDGPGGGPGGSHMGGNYGDDRRGGRGGYDRGGYRGRGGDRGGFRGGRGGGDRGGFGPGKMDSRGEHRQDRRERPY

binding [2]: no binding
B2: RBM14 (protein, UniProt Q96PK6 1-669)
chain: MKIFVGNVDGADTTPEELAALFAPYGTVMSCAVMKQFAFVHMRENAGALRAIEALHGHELRPGRALVVEMSRPRPLNTWKIFVGNVSAACTSQELRSLFERRGRVIECDVVKDYAFVHMEKEADAKAAIAQLNGKEVKGKRINVELSTKGQKKGPGLAVQSGDKTKKPGAGDTAFPGTGGFSATFDYQQAFGNSTGGFDGQARQPTPPFFGRDRSPLRRSPPRASYVAPLTAQPATYRAQPSVSLGAAYRAQPSASLGVGYRTQPMTAQAASYRAQPSVSLGAPYRGQLASPSSQSAAASSLGPYGGAQPSASALSSYGGQAAAASSLNSYGAQGSSLASYGNQPSSYGAQAASSYGVRAAASSYNTQGAASSLGSYGAQAASYGAQSAASSLAYGAQAASYNAQPSASYNAQSAPYAAQQAASYSSQPAAYVAQPATAAAYASQPAAYAAQATTPMAGSYGAQPVVQTQLNSYGAQASMGLSGSYGAQSAAAATGSYGAAAAYGAQPSATLAAPYRTQSSASLAASYAAQQHPQAAASYRGQPGNAYDGAGQPSAAYLSMSQGAVANANSTPPPYERTRLSPPRASYDDPYKKAVAMSKRYGSDRRLAELSDYRRLSESQLSFRRSPTKSSLDYRRLPDAHSDYARYSGSYNDYLRAAQMHSGYQRRM
